Results are given in words; binding and its absence hold for the method and conditions named. Some entries that bind do so weakly or less than the wild type.
Assays:
[1] = biological target: human HLA-G (form not named; printed as "human anti-HLA-G" in paragraph 257) (human) (UniProt P17693); experiment: blocking ELISA: biotinylated HLAG on streptavidin plate, anti-HLAG antibody added first, then recombinant CD8a (blocked ligand), detected with HRP anti-CD8a; antibody concentration not given
[2] = biological target: human HLA-G (form not named; printed as "human anti-HLA-G" in paragraph 257) (human) (UniProt P17693); experiment: screening of antibodies from immunized rats; method not given

binding [1]: binds
binding [2]: binds
B1: HLA-G-0031 (antibody, V domains shown)
VH: QVKLMQSGAALVKPGTSVKMSCNASGYTFTDYWVSWVKQSHGKRLEWVGEISPNSGASNFDENFKDKATLTVDKSTSTAYMELSRLTSEDSAIYYCTRSSHGSFRWFAYWGQGTLVTVSS
VL: AIVLNQSPSSIVASQGEKVTITCRASSSVSSNHLHWYQQKPGAFPKFVIYSTSQRASGIPSRFSGSGSGTSYSFTISRVEAEDVATYYCQQGSSNPYTFGAGTKLELK
